PubChem BioAssay AID1259405, NCATS | 2018
Screen: 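Silenced genes that increase secreted GFP made by CHO cells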 (primary screen). Cell system: Chinese hamster CHO-K1 ovary cells with stable secreted eGFP expression. Knock-down reagent: single siRNA against mouse genes, 0.8 pmol siRNA per well (2 µl of 400 nM stock). Time to read-out: 3 days. Read-out: 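Percent of the per-plate non-targeting control median for intracellular GFP per well by laser scanning cytometry and for cell viability by ATP luminescence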. Scale: GFP, % of control: higher = more GFP per well, higher productivity; viability (ATP), % of control: higher = more viable cells (more ATP). Active means: 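a knock-down is called active if GFP reaches 120% or more of non-targeting control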.
This is an unselected part of about 50,000 reagents tested. In the full data, about 4,000 (8%) are marked active. 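Mouse siRNA library applied to hamster cells; one well for each siRNA.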 Unmarked entries are inactive. The numbers tell different reagents against one gene apart. Reagent sequences are not shown.

| gene symbol | siRNA no. | GFP, % of control | viability (ATP), % of control |
| --- | --- | --- | --- |
| Aqp9 | 1 | 188 (active) | 50.1 |
| Aqp9 | 2 | 70.8 | 62 |
| Aqp9 | 3 | 102 | 66.5 |
| Nlrp9a | 1 | 82 | 86 |
| Nlrp9a | 2 | 63 | 74.7 |
| Nlrp9a | 3 | 70.6 | 47.9 |
| Pus3 | 1 | 49.4 | 57.5 |
| Pus3 | 2 | 93.7 | 63.1 |
| Pus3 | 3 | 51.6 | 57.1 |
| Dpf2 | 1 | 54.6 | 70.7 |
| Dpf2 | 2 | 52.2 | 41 |
| Dpf2 | 3 | 101 | 93.5 |
| Or4f54 | 1 | 30.8 | 84.5 |
| Or4f54 | 2 | 36.7 | 50.1 |
| Or4f54 | 3 | 77 | 77.6 |
| Slc19a2 | 1 | 118 | 110 |
| Slc19a2 | 2 | 68.5 | 64 |
| Slc19a2 | 3 | 88 | 102 |
| Mthfd1l | 1 | 132 (active) | 86.1 |
| Mthfd1l | 2 | 77.2 | 74.1 |
| Mthfd1l | 3 | 95.5 | 94.4 |
| Bphl | 1 | 136 (active) | 117 |
| Bphl | 2 | 81.5 | 96.6 |
| Bphl | 3 | 60.3 | 64.8 |
| Rsad2 | 1 | 51.1 | 53.9 |
| Rsad2 | 2 | 61.6 | 58.9 |
| Rsad2 | 3 | 89.9 | 70.7 |
| Nr0b2 | 1 | 157 (active) | 70 |
| Nr0b2 | 2 | 78.9 | 85.9 |
| Nr0b2 | 3 | 76.6 | 71.6 |
| Lsm2 | 1 | 87.5 | 105 |
| Lsm2 | 2 | 110 | 101 |
| Lsm2 | 3 | 82.3 | 75.6 |
| Dync1i1 | 1 | 79.2 | 82.3 |
| Dync1i1 | 2 | 99.8 | 110 |
